Measurements: publication PMC2965147
No constants are given. Whether binding was seen depends on the method and setting. Some binding calls cover weakened binding; strength is not graded here. Each block holds one binder with its values, some of them ahead of it.

Columns and labels:
wild-type synphilin-1 = wild-type synphilin-1 (UniProt Q9Y6H5); assay: SDS-PAGE and Western blot of detergent-resistant membrane fractions (band size); yeast lysates in TNE buffer, 0.2% Triton X-100 on ice for 30 min, flotation on an OptiPrep gradient, nine fractions TCA-precipitated and blotted for synphilin-1; wild-type BY4741 and erg24Δ strains, with or without co-expressed α-Syn-EGFP
synphilin-1 R621C mutant = synphilin-1 R621C mutant (UniProt Q9Y6H5); assay: as above
[1] = target: endogenous mouse synphilin-1 (mouse (endogenous in primary cortical neurons)) (UniProt Q99ME3); assay: SDS-PAGE and Western blot of detergent-resistant membrane fractions (band size); lysates of 11 DIV mouse primary neuronal cultures in TBS with 1% Triton X-100 on ice for 30 min, sucrose gradient, eight fractions TCA-precipitated and blotted for synphilin-1

binding (wild-type synphilin-1): binds
B1: wild-type synphilin-1 (protein, UniProt Q9Y6H5 1-919)
chain: MEAPEYLDLDEIDFSDDISYSVTSLKTIPELCRRCDTQNEDRSVSSSSWNCGISTLITNTQKPTGIADVYSKFRPVKRVSPLKHQPETLENNESDDQKNQKVVEYQKGGESDLGPQPQELGPGDGVGGPPGKSSEPSTSLGELEHYDLDMDEILDVPYIKSSQQLASFTKVTSEKRILGLCTTINGLSGKACSTGSSESSSSNMAPFCVLSPVKSPHLRKASAVIHDQHKLSTEETEISPPLVKCGSAYEPENQSKDFLNKTFSDPHGRKVEKTTPDCQLRAFHLQSSAAESKPEEQVSGLNRTSSQGPEERSEYLKKVKSILNIVKEGQISLLPHLAADNLDKIHDENGNNLLHIAASQGHAECLQHLTSLMGEDCLNERNTEKLTPAGLAIKNGQLECVRWMVSETEAIAELSCSKDFPSLIHYAGCYGQEKILLWLLQFMQEQGISLDEVDQDGNSAVHVASQHGYLGCIQTLVEYGANVTMQNHAGEKPSQSAERQGHTLCSRYLVVVETCMSLASQVVKLTKQLKEQTVERVTLQNQLQQFLEAQKSEGKSLPSSPSSPSSPASRKSQWKSPDADDDSVAKSKPGVQEGIQVLGSLSASSRARPKAKDEDSDKILRQLLGKEISENVCTQEKLSLEFQDAQASSRNSKKIPLEKRELKLARLRQLMQRSLSESDTDSNNSEDPKTTPVRKADRPRPQPIVESVESMDSAESLHLMIKKHTLASGGRRFPFSIKASKSLDGHSPSPTSESSEPDLESQYPGSGSIPPNQPSGDPQQPSPDSTAAQKVATSPKSALKSPSSKRRTSQNLKLRVTFEEPVVQMEQPSLELNGEKDKDKGRTLQRTSTSNESGDQLKRPFGAFRSIMETLSGNQNNNNNYQAANQLKTSTLPLTSLGRKTDAKGNPASSASKGKNKAA

binding (synphilin-1 R621C mutant): binds
B2: synphilin-1 R621C mutant (protein, UniProt Q9Y6H5 1-919)
chain: MEAPEYLDLDEIDFSDDISYSVTSLKTIPELCRRCDTQNEDRSVSSSSWNCGISTLITNTQKPTGIADVYSKFRPVKRVSPLKHQPETLENNESDDQKNQKVVEYQKGGESDLGPQPQELGPGDGVGGPPGKSSEPSTSLGELEHYDLDMDEILDVPYIKSSQQLASFTKVTSEKRILGLCTTINGLSGKACSTGSSESSSSNMAPFCVLSPVKSPHLRKASAVIHDQHKLSTEETEISPPLVKCGSAYEPENQSKDFLNKTFSDPHGRKVEKTTPDCQLRAFHLQSSAAESKPEEQVSGLNRTSSQGPEERSEYLKKVKSILNIVKEGQISLLPHLAADNLDKIHDENGNNLLHIAASQGHAECLQHLTSLMGEDCLNERNTEKLTPAGLAIKNGQLECVRWMVSETEAIAELSCSKDFPSLIHYAGCYGQEKILLWLLQFMQEQGISLDEVDQDGNSAVHVASQHGYLGCIQTLVEYGANVTMQNHAGEKPSQSAERQGHTLCSRYLVVVETCMSLASQVVKLTKQLKEQTVERVTLQNQLQQFLEAQKSEGKSLPSSPSSPSSPASRKSQWKSPDADDDSVAKSKPGVQEGIQVLGSLSASSRARPKAKDEDSDKILCQLLGKEISENVCTQEKLSLEFQDAQASSRNSKKIPLEKRELKLARLRQLMQRSLSESDTDSNNSEDPKTTPVRKADRPRPQPIVESVESMDSAESLHLMIKKHTLASGGRRFPFSIKASKSLDGHSPSPTSESSEPDLESQYPGSGSIPPNQPSGDPQQPSPDSTAAQKVATSPKSALKSPSSKRRTSQNLKLRVTFEEPVVQMEQPSLELNGEKDKDKGRTLQRTSTSNESGDQLKRPFGAFRSIMETLSGNQNNNNNYQAANQLKTSTLPLTSLGRKTDAKGNPASSASKGKNKAA

binding [1]: no binding
B3: endogenous mouse synphilin-1 (protein, UniProt Q99ME3 1-962)
chain: MEAPEYLDLDEIDFSDDISYSVTSLKTIPALCRRCDSQNEDRSVSSSGWNCGVSTLITNPQKPTGIADVYSKFRPVKRVSPLKHQPETLENNENEDQKNNTVEYQKGGETDQGPQPEELSPEDGVGGLPGKGSEPSQALGELEHYDLDMDEILDVPYIKSSQQLAPLTKVTSEKRILGLCTTINGLSAKTCPIASTENSTPNMTPFCVLSPVKSPHLRKAPTALRDQHKLSTEDSESSPALGKCGPAYESENHSKDFLNKVFSDPHSRKIEKSGPDCKLRSFHLQSSAAGAKTEEPINGMNWTNTQGTEERTEYLKKVRSILNIVNEGQISLLPHLAADNLDKIHDENGNNLLHIAASKGHAECLQHLTSLMGEDCLNERNTEQLTPAGLAIKNGQLECVRWMVSETEAIAELSCSKDFPSLIHYAGCYGQEKILLWLLQFMQEQGISLDEVDREGNSAVHVASQHGYLGCIQTLVEYGANVTMQNHAGEKPSQSAERHGHTLCSRYLVVVETCMSLASQVVKLTKQLKEQTVERVTLQSQLQQLLEAQKSEGKSLPSSPSSPSSPASTKSQWKALDTDEESTGKSKVGAQEGIQVLGSLSVSSRARTKGKDEDSDKILRQLLGKEISENVCTQEKLSLEFQDAQASSRNSKKIPLEKRELKLARLRQLMQRSLSESDTDSNNSEDPKNTPVKRADRPRPQPIVESVENVDSAESLHLMIKKHSLASGRRFPFGMKASKSLDGHSPSPTSESSEPDLDSHGPGLGMTPPTQPSTEATQSSPDSTAAQKVATSPKSALKSPSSKRRTSQNSKLRVTFEEPVVQMEQTGLELNGEKDKDKGRAPQRTSESGEQMKRPFGTFRSIMESLSGNQNNNNNYQPASQLKTCTLPLTSLGRKTADAKGNPVSPASKGKNKAAMYSSCIHLPSNALVEEHLRDYARHNDIKRNATKTYHMKHTAEPEPRE
